Patent US20080015137A1
These are yes or no findings as the source states them, for the method shown. In cells and extracts the contact can be indirect. Some results given as binding are weak or reduced against the parent protein; the word gives no strength. Tags and fused reporters may be left off the sequences shown.

Assays:
[1] = molecular target: Karyopherin beta2 (Kapβ2), full length, wild type (human) (UniProt Q92973); assay: GST pull-down (FIG. 14)
[2] = molecular target: Karyopherin beta2 (Kapβ2), full length, wild type (human) (UniProt Q92973); assay: GST pull-down, Coomassie-stained gel (FIG. 12A)
[3] = molecular target: Karyopherin beta2 (Kapβ2), full length, wild type (human) (UniProt Q92973); assay: summary table of the pull-down assays of Kapβ2 with immobilized GST fusions
Kapβ2 W460A/W730A = molecular target: T1, Kapβ2 W460A/W730A; assay: pull-down: Kapβ2 mutant added to immobilized GST-NLS, SDS-PAGE, stained gel
T1 sequence: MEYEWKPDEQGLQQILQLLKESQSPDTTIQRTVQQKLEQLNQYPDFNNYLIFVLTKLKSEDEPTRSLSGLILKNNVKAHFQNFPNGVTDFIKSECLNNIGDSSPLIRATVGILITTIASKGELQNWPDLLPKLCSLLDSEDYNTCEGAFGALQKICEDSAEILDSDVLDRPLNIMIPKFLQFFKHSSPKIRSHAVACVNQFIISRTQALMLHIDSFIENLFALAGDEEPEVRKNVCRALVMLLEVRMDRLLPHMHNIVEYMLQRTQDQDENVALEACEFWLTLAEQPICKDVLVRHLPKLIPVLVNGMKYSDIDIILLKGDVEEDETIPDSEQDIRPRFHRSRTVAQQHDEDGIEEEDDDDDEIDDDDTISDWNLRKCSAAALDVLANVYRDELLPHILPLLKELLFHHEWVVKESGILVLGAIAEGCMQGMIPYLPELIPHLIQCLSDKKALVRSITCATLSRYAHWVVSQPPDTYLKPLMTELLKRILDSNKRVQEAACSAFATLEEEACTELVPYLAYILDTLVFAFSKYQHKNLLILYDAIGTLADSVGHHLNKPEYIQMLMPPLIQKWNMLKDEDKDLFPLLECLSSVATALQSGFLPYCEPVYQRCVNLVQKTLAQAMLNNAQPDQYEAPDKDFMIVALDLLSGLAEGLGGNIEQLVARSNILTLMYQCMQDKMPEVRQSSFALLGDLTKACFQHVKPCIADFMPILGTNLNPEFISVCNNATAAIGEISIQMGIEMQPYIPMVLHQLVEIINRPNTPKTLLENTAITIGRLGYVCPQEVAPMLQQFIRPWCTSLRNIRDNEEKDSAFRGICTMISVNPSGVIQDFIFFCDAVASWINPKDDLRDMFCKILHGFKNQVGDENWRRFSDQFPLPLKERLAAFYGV

[4] = molecular target: Karyopherin beta2 (Kapβ2), full length, wild type (human) (UniProt Q92973); assay: pull-down: Kapβ2 added to GST fusion immobilized on glutathione sepharose, SDS-PAGE, Coomassie Blue
[5] = molecular target: Karyopherin beta2 (Kapβ2), full length, wild type (human) (UniProt Q92973); assay: GST pull-down (FIG. 6E)

Measured: binding

B1: GST-hnRNP M-NLS (GST-fusion of hnRNP M residues 41-70) (peptide, human, UniProt P52272 41-70, looked up, not shown: a dimerising Fc or GST)
chain: ERPAQNEKRKEKNIKRGGNRFEPYANPTKR
binds: [1] | [2] | [3] | Kapβ2 W460A/W730A | [4]

B2: GST-HCC1, full length (protein, human, UniProt Q14498 2-530, looked up, not shown: a dimerising Fc or GST)
chain: ADDIDIEAMLEAPYKKDENKLSSANGHEERSKKRKKSKSRSRSHERKRSKSKERKRSRDRERKKSKSRERKRSRSKERRRSRSRSRDRRFRGRYRSPYSGPKFNSAIRGKIGLPHSIKLSRRRSRSKSPFRKDKSPVREPIDNLTPEERDARTVFCMQLAARIRPRDLEEFFSTVGKVRDVRMISDRNSRRSKGIAYVEFVDVSSVPLAIGLTGQRVLGVPIIVQASQAEKNRAAAMANNLQKGSAGPMRLYVGSLHFNITEDMLRGIFEPFGRIESIQLMMDSETGRSKGYGFITFSDSECAKKALEQLNGFELAGRPMKVGHVTERTDASSASSFLDSDELERTGIDLGTTGRLQLMARLAEGTGLQIPPAAQQALQMSGSLAFGAVAEFSFVIDLQTRLSQQTEASALAAAASVQPLATQCFQLSNMFNPQTEEEVGWDTEIKDDVIEECNKHGGVIHIYVDKNSAQGNVYVKCPSIAAAIAAVNALHGRWFAGKMITAAYVPLPTYHNLFPDSMTATQLLVPSRR
binds: [5]
